Test results taken from article PMC7688313.
Results are given in words; binding and its absence hold for the method and conditions named. Binding seen in cells or lysates may run through a third protein. Some entries that bind do so weakly or less than the wild type. Tags and fused reporters may be left off the sequences shown. Each block holds one binder with its values, some of them ahead of it.

Amino acid sequences for entries named in this document (tags omitted).
UniProt Q9EQW7: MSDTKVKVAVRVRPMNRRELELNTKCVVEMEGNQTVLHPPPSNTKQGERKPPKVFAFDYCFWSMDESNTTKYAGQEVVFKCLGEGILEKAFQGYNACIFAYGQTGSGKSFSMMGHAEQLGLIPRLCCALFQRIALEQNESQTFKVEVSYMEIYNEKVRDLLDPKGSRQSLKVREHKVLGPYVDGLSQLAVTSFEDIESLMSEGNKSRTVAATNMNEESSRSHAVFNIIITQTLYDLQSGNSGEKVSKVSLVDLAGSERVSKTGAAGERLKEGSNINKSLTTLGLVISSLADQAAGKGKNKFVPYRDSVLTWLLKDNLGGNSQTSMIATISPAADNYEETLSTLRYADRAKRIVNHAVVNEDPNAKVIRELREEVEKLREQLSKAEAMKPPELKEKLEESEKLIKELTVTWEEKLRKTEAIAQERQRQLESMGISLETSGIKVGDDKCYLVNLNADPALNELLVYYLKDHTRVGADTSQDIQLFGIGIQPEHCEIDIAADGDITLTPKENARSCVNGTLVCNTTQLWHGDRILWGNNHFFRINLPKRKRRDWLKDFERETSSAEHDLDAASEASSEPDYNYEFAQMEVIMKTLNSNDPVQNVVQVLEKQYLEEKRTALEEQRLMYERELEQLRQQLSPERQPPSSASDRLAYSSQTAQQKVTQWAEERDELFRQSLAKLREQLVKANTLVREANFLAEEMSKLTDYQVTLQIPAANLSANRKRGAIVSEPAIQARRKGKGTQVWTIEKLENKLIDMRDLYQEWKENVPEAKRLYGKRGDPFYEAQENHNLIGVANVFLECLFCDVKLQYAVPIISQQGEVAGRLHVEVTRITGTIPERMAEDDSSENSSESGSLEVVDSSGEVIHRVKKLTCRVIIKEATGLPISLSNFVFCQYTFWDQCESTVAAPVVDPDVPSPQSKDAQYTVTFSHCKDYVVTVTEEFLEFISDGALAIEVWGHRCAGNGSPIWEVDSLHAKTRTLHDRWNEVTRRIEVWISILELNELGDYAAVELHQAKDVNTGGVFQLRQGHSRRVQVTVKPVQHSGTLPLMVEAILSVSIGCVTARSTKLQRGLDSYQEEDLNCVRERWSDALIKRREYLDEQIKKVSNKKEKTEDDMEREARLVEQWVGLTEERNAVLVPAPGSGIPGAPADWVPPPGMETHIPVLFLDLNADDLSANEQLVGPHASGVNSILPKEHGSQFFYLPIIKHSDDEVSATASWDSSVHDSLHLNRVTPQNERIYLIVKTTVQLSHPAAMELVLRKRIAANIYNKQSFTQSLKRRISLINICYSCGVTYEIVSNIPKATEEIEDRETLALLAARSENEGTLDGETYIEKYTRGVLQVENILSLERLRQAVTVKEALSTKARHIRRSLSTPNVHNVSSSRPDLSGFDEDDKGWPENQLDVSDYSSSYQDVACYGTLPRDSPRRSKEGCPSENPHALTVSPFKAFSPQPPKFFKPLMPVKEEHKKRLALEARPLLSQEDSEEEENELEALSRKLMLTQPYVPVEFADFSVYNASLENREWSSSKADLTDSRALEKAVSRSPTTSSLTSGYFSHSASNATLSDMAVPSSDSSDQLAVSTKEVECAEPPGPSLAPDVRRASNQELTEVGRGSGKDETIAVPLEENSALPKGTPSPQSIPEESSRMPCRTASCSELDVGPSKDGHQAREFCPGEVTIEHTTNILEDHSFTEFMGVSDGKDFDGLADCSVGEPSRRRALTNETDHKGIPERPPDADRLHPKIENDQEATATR
UniProt B1AVY7: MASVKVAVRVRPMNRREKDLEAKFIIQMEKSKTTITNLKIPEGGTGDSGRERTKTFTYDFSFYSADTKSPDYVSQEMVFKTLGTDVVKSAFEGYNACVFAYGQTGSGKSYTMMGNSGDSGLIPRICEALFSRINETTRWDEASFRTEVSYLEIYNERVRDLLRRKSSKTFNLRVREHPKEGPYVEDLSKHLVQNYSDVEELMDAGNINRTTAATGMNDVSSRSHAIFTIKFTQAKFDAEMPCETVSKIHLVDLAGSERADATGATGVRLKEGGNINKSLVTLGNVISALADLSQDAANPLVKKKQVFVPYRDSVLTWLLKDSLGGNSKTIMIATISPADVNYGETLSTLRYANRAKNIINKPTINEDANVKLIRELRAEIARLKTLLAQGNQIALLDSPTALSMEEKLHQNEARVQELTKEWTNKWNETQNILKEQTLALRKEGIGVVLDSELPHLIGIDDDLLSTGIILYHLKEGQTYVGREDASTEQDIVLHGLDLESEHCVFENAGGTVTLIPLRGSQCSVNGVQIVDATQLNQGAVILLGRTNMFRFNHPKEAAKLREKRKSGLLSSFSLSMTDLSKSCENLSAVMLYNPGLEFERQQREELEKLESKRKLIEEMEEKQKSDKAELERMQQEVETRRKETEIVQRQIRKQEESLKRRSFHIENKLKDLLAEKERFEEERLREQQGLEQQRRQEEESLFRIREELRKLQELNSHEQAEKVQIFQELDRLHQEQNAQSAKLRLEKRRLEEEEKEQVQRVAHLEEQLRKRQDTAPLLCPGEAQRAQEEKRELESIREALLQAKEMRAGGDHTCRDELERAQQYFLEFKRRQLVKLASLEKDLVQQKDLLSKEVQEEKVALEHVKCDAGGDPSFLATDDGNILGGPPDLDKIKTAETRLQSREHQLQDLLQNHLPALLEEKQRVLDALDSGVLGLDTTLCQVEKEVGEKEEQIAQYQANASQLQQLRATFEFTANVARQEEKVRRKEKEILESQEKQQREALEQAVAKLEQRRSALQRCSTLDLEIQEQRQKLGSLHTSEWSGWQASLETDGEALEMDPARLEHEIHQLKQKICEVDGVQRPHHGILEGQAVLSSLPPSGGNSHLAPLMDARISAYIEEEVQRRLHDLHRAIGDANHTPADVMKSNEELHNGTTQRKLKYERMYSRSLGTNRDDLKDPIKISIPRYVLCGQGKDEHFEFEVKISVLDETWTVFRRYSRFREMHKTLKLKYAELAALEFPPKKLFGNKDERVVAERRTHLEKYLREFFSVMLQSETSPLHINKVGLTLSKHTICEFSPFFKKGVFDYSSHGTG

Key:
[1] = target: GST-CD (cytoplasmic domain of LDLR fused to GST) (mouse) (UniProt P35951); assay: pull-down; GST-CD as bait, BLOS1-Myc in HEK293T cell lysate; immunoblotting; only the target purified
KIF13A-FLAG (mouse) = KIF13A-FLAG (mouse) (UniProt Q9EQW7); assay: co-IP; HEK293T cells co-transfected for 48 to 72 hr; whole cell lysate (50 mM Tris-HCl pH 7.0, 150 mM NaCl, 1 mM EDTA, 1% Triton X-100) incubated with anti-FLAG M2 agarose beads overnight at 4°C, no cross-linking; immunoblotting
KIF16B-FLAG (mouse) = KIF16B-FLAG (mouse) (UniProt B1AVY7); assay: as above
KIF3B-FLAG (mouse) = target: T1, KIF3B-FLAG (mouse) (UniProt Q61771); assay: as above
T1 sequence: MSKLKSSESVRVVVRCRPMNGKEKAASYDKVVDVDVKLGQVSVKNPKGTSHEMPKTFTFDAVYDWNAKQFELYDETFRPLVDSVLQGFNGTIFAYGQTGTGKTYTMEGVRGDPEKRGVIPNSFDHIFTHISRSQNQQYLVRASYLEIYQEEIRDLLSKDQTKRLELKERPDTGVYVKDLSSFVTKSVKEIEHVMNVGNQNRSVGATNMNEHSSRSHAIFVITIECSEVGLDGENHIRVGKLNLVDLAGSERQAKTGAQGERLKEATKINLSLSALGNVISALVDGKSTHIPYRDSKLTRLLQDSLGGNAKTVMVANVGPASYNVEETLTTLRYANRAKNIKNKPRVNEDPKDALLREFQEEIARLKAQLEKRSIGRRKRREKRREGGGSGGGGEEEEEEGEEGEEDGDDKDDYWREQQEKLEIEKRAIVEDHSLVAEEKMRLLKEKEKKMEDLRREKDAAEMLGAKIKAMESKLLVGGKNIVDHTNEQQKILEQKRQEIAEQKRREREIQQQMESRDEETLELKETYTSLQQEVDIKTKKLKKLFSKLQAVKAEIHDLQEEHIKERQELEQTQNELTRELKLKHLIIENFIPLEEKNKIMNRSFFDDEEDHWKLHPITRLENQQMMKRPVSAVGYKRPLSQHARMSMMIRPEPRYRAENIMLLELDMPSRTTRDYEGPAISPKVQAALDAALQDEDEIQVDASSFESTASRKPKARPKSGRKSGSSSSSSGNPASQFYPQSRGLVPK

binding [1]: binds
B1: BLOS1-Myc (protein, UniProt O55102 1-125)
chain: MLSRLLKEHQAKQNERKELQEKRRREAIAAATCLTEALVDHLNVGVAQAYMNQRKLDHEVKTLQVQAAQFAKQTGQWIGMVENFNQALKEIGDVENWARSIELDMRTIATALEYVYKGQLQSAPS

binding (KIF13A-FLAG (mouse)): binds | binding (KIF16B-FLAG (mouse)): no binding | binding (KIF3B-FLAG (mouse)): binds
B2: BLOS1-HA (protein, UniProt O55102 1-125)
chain: B1 chain
